The values are deposited in ChEMBL (CHEMBL3988442, “University of Dundee, Small-Polar-MMV Screening Library” (2021)).

Mtb growth Cornell: 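Whole-cell assay for inhibitors of Mycobacterium tuberculosis growth, labelled Cornell in the record; the read-out is not stated. The concentration is filed as 10 mM, unlikely as a test dose, so the dose is not known. Higher means stronger inhibition (inferred from two other growth screens of the library). Size under these conditions: about 53,000 compounds, about 900 of them at 50% or above in at least one test.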
Mtb heat-shock: 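Assay on Mycobacterium tuberculosis, filed only as a heat shock assay from Cornell; the read-out is not stated. The concentration is filed as 10 mM, unlikely as a test dose, so the dose is not known. Direction is inferred from retests: higher values go with stronger inhibition. About 69,000 compounds were tested under these conditions; 1.4% (about 930) showed 50% or more at least once.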

Each number is a percent effect as filed.
The controls that fix the scale are not given in the record; negative values are as filed.
The compounds are a random part of those screened.
A dash means the value is not listed here; it may have been measured.

SMILES | Mtb growth Cornell | Mtb heat-shock
COc1ccc(Br)cc1CN(C)C(C)c1nc(C)no1 (stereo not drawn) | - | -9.973%
Cc1cnn(CC(=O)N2CCC(c3ccn4nccc4n3)CC2)c1 | 30.93% | -23.18%
Cc1nccc(N[C@H]2CN(CC(C)(C)N3CCOCC3)C[C@@H]2C2CC2)n1 | - | -28.68%
Cc1ccc2nc(CNc3ccccc3C(=O)NC3CC3)cn2c1 | 42.93% | -5.094%
c1ccc2c(c1)COC1(CCCC1)N2 | -22.63% | 2.51%
Cc1cc(NC(=O)CN2CCn3c(nnc3C(C)C)C2)n(C)n1 | - | -0.8126%
Cn1cc(C(=O)Nc2ccc3c(c2)CN(C(=O)C2CC2)CC3)nn1 | - | -4.608%
COCc1cc(CNC(=O)c2cc(NC(C)=O)ccc2Cl)n[nH]1 | -14.93% | 1.824%
CN(C)C(=O)c1ccc(N2CCC3(CCC(=O)N(CCO)C3)CC2)nc1 | 16.54% | -1.344%
COc1ccc(OC)c(CNCc2ccnc(N3CCOCC3)c2)c1 | 25.31% | -4.116%
CN(C)Cc1ccnc(C2CN(CCCc3ccccc3)CCO2)n1 (stereo not drawn) | -6.603% | -7.114%
CCOC(C)c1nc(CN2CCN(c3nccc(C)n3)CC2)cs1 (stereo not drawn) | - | -5.324%
CC(C)OCc1cccc(NC(=O)N(C)Cc2ncnn2C)c1 | -38.14% | -9.893%
COC[C@@H]1CCC[C@]12CN(S(=O)(=O)c1cn(C)cn1)CCO2 | 16.46% | 5.658%
CC(C)c1cnc(CN2CCCC(c3ccn[nH]3)C2)o1 (stereo not drawn) | 13.42% | 7.61%
CCn1cc(-c2cc(-c3ccn(C)c3)nc(N)c2C#N)cc1C#N | 14.04% | -9.449%
O=C(NCc1ccco1)N1CCC(n2cc(-c3ccccn3)nn2)CC1 | 4.093% | -11.42%
Cc1ncc(C)c(N2CCC(Cc3ccc(Cl)cc3)(C(=O)O)CC2)n1 | 35.62% | 39.13%
CCn1ccnc1CN1CCN(c2ncnc3ccsc23)CC1C (stereo not drawn) | 6.485% | 8.603%
NCc1n[nH]c(=O)n1-c1cccc(Cl)c1Cl | -49.88% | 17.76%
[H][C@@]12C[C@@H](c3nc(C)no3)CN(S(=O)(=O)c3ccccc3)[C@]1([H])CCO2 | 20.19% | -0.4705%
COc1cc(NC(=O)N(C)CC2CC2)ncn1 | 26.6% | -3.698%
O=C(NC1CCS(=O)(=O)C1)c1sccc1OC(F)F (stereo not drawn) | -59.09% | 3.616%
Cc1cnc(N2CCOC3(CCCN(C(=O)C(C)C)C3)C2)nc1 (stereo not drawn) | 8.771% | -12.65%
CCOc1ccc(CNCCCn2ccnc2)cc1Br | - | -12%
Cc1nn(C)c2nc(N(Cc3ccccn3)CC3CCCO3)sc12 (stereo not drawn) | -1.357% | -20.31%
Cc1cccc(N2CCN(CCC(=O)NCc3nnc[nH]3)CC2)c1 | -6.526% | -8.462%
Cc1ccc2oc(SCC(=O)NC(C)(C)C)nc2n1 | 1.843% | -10.8%
Cc1nsc(NC(=O)NC2(CN3CCOCC3)CCCCC2)n1 | 15.95% | 0.675%
O=C(CCc1ccccn1)NC1CCN(c2cccc(Cl)c2)C1 (stereo not drawn) | 15.62% | -2.053%
CC(C)CNC(=O)c1ccc(NC(=O)NC(C)C)cc1Cl | 6.325% | -1.079%
CCOC(=O)CCn1cnc2onc(-c3ccc(OC)cc3)c2c1=O | -10.61% | -11.14%
CN1CC2(CCCN(c3cc(N4CCCCC4)ncn3)C2)OC1=O (stereo not drawn) | -13.86% | -7.597%
CN1CCCC1CCNC(=O)c1ccccc1-n1cc(CN)cn1 (stereo not drawn) | 7.916% | -3.754%
O=C(NCCN1CCCCC1)c1ccn(-c2ccccc2)n1 | -16.15% | -27.32%
CC(NC(=O)N1CCC(CO)CC1)c1csc2ccccc12 (stereo not drawn) | - | -8.95%
Cn1ncc2c1C(COCC1CC1)N(Cc1ccoc1)CC2.O=C(O)C(F)(F)F.O=C(O)C(F)(F)F (stereo not drawn) | 2.12% | -34.45%
Cc1ncsc1CCN(C)Cc1cc2n(n1)CCN(Cc1ccco1)C2 | 15.45% | -0.5674%
Cc1noc(CNC(=O)NCC2(C)CCCc3ccccc32)n1 (stereo not drawn) | 18.97% | 31.77%
CC(=O)N1CCN(Cc2ccc(C(F)(F)F)cc2F)CC(O)C1 (stereo not drawn) | -2.641% | -22.26%
CCCOc1cccc(NC(=O)NC2CCc3nc(C)nn3C2)c1 (stereo not drawn) | -0.9734% | 14.88%
O=C1COc2ccc(S(=O)(=O)NCc3ccccc3)c3c2N1CCC3 | 10.19% | -19.9%
O=C(O)C(F)(F)F.O=C(c1nc2c(o1)CN(CC1CCC1)C2)N1CCCC1 | 2.323% | 5.527%
Cc1nnc(CN(Cc2ccc(Cl)c(Cl)c2)C2CC2)o1 | - | 4.069%
O=C(O)C(F)(F)F.[H][C@@]12CCN(CCc3ccccc3)C[C@@]1([H])O[C@@H](C(=O)NC1CC1)C2 | - | -1.701%
CCCOc1cc(F)ccc1NC(=O)NCc1noc(C)n1 | 7.548% | -24.95%
CCc1nccn1C1CCCN(C(=O)Cc2cn3ccccc3n2)C1 (stereo not drawn) | - | 12.75%
O=C(c1ccc(F)cc1)N1CCOC(c2nc(-c3ncccn3)no2)C1 (stereo not drawn) | -8.326% | -9.458%
CCn1cc(-c2cc(-c3cc(CN(C)C)cs3)nc(N)c2C#N)c(C)n1 | 3.776% | 8.453%
CC/N=c1\c(NC(=O)C(C)(C)C)c(O)oc2ccccc12 | -31.82% | -10.16%
Cc1c(F)cccc1CN1CCn2nc(CNC(=O)N(C)C)cc2C1 | 7.098% | -11.12%
CC(C)S(=O)(=O)c1ccccc1C(=O)NCC1Cc2ccccc2O1 (stereo not drawn) | 9.401% | 2.581%
CC(C)C1CCC(N2CCN(CCS(C)(=O)=O)CC2)CC1 (stereo not drawn) | 16.39% | -23.69%

5 of the entries, repeated:

- Cc1noc(CNC(=O)NCC2(C)CCCc3ccccc32)n1 (stereo not drawn) : Mtb growth Cornell: 18.97%; Mtb heat-shock: 31.77%
- O=C(NCCN1CCCCC1)c1ccn(-c2ccccc2)n1 : Mtb growth Cornell: -16.15%; Mtb heat-shock: -27.32%
- Cn1ncc2c1C(COCC1CC1)N(Cc1ccoc1)CC2.O=C(O)C(F)(F)F.O=C(O)C(F)(F)F (stereo not drawn) : Mtb growth Cornell: 2.12%; Mtb heat-shock: -34.45%
- [H][C@@]12C[C@@H](c3nc(C)no3)CN(S(=O)(=O)c3ccccc3)[C@]1([H])CCO2 : Mtb growth Cornell: 20.19%; Mtb heat-shock: -0.4705%
- CC(C)OCc1cccc(NC(=O)N(C)Cc2ncnn2C)c1 : Mtb growth Cornell: -38.14%; Mtb heat-shock: -9.893%